Data as given in PubChem BioAssay AID504744 (Drosophila RNAi Screening Center, 2011)

- Purpose: 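Identify dsRNAs that increase or decrease phospho-dAkt after insulin treatment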 (primary screen)
- System: Drosophila Kc167 cells
- Knock-down reagent: long dsRNA against Drosophila genes, 250 ng dsRNA per well of a 384-well plate
- Time to read-out: 3 days of knock-down, then overnight serum-free starvation before stimulation
- Treatment: bovine insulin at 387 nM for 10 minutes after 12 h without serum
- Measurement: 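In-cell antibody fluorescence for phospho-dAkt in each well over DNA-dye signal, with log2 residuals expressed as z-scores adjusted for cell count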
- Rule for the call: 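Hit in the insulin screen when the two-replicate mean z-score is more extreme than plus or minus 2.5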
In all, the deposit lists about 23,000 reagents; shown is a random part of those with a known target gene and a result. In the full data, 98 (0.43%) got an active call. 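Only hit calls are given; the phospho-dAkt signals, z-scores and hit direction were not deposited.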 Reagents against one gene are numbered here.

target,reagent,outcome
CG33013 (retired record) (GeneID 318830),1,inactive
CG14626 (GeneID 31064),1,inactive
Bet1 (GeneID 40094),1,inactive
CG4045 (GeneID 31176),1,inactive
CG44836 (GeneID 39825),1,inactive
msopa (GeneID 45962),1,inactive
hob (GeneID 38395),1,inactive
Cyp12a5 (GeneID 42293),1,inactive
Ubr3 (GeneID 31713),1,inactive
Ubr3 (GeneID 31713),2,inactive
mRpL22 (GeneID 32662),1,inactive
CG4467 (GeneID 42747),1,inactive
Lcp9 (GeneID 37963),1,inactive
CG5516 (GeneID 41940),1,inactive
CG5516 (GeneID 41940),2,inactive
CG14309 (GeneID 42212),1,inactive
alpha-Est2 (GeneID 40908),1,inactive
CG8492 (GeneID 38866),1,inactive
CG8492 (GeneID 38866),2,inactive
IleRS (GeneID 45785),1,inactive
SdhBL (GeneID 32887),1,inactive
mld (GeneID 2768685),1,inactive
mld (GeneID 2768685),2,inactive
mld (GeneID 2768685),3,inactive
bdl (GeneID 33635),1,inactive
eIF2alpha (GeneID 32617),1,active
CAH4 (GeneID 42965),1,inactive
CG17807 (GeneID 37585),1,inactive
CG31546 (GeneID 40691),1,inactive
Cnep1r1 (GeneID 3355167),1,inactive
CG4928 (GeneID 32682),1,inactive
CG6231 (GeneID 42339),1,inactive
CG14454 (GeneID 40482),1,inactive
CG30289 (GeneID 246532),1,inactive
GramD1B (GeneID 33552),1,inactive
GramD1B (GeneID 33552),2,inactive
NK7.1 (GeneID 41747),1,inactive
CG1231 (GeneID 38060),1,inactive
Ube4B (GeneID 34699),1,inactive
CG10311 (GeneID 41984),1,inactive
CG5644 (GeneID 39029),1,inactive

Records above marked active:
target,reagent,outcome
eIF2alpha (GeneID 32617),1,active

The listing continues.
target,reagent,outcome
Acox57D-p (GeneID 37445),1,inactive
CG3348 (GeneID 50082),1,inactive
CG31231 (GeneID 318638),1,inactive
CG14562 (GeneID 40439),1,inactive
Egm (GeneID 36242),1,inactive
Egm (GeneID 36242),2,inactive
fzr2 (GeneID 37808),1,inactive
MED27 (GeneID 40696),1,inactive
Ufc1 (GeneID 36762),1,inactive
Cbs (GeneID 33081),1,inactive
spn-B (GeneID 41746),1,inactive
mirr (GeneID 39441),1,inactive
CG14015 (GeneID 33780),1,inactive
CG31793 (GeneID 326161),1,inactive
PsGEF (GeneID 31224),1,inactive
CG12885 (GeneID 43308),1,inactive
sand (GeneID 35777),1,inactive
Tep5Psi (GeneID 35250),1,inactive
Tep5Psi (GeneID 35250),2,inactive
v (GeneID 32026),1,inactive
CG31784 (GeneID 318939),1,inactive
sgl (GeneID 38760),1,inactive
yellow-g (GeneID 38294),1,inactive
